Laboratory results: patent US20100210517A1
These are yes or no findings as the source states them, for the method shown. Some entries that bind do so weakly or less than the wild type.

Chains of the proteins cited; added tags and fusions are not shown. Lines headed by an entry give the natural chain unless they say otherwise; changes in a name come on top.
UniProt Q9Y5Y6: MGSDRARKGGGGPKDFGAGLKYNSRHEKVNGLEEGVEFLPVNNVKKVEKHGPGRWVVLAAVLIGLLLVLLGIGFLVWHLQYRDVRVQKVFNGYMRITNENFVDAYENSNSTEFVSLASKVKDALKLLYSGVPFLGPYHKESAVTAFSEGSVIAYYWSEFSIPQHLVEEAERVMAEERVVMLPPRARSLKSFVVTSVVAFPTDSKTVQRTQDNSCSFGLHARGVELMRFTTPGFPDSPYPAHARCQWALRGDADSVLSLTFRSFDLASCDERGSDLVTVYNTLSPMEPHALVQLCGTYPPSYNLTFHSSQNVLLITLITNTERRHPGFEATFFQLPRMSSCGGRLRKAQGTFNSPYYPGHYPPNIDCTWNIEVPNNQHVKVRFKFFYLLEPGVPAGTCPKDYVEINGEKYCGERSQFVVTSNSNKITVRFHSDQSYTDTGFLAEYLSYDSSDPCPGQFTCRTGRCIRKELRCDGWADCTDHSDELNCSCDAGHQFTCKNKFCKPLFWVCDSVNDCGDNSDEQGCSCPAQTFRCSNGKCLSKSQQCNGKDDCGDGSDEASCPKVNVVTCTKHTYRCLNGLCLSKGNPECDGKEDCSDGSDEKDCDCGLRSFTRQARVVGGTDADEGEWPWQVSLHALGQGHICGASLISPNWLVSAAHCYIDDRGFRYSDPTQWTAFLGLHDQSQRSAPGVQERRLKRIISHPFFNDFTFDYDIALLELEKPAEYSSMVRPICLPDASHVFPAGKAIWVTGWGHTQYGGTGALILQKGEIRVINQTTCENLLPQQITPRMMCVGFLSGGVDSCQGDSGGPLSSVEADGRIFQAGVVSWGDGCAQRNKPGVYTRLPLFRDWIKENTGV

Biological target: MAT CR12 (human) (UniProt Q9Y5Y6)
Test: solid-phase binding assay, ligand at 80 nM, CR protein coated on plate

B1: MatRAP2 d3 (ligand, not shown: small tags and cut ends)
chain: LDRLRRVSHQGYSTEAEFEEPRVIDLWDLAQPANLTDKGLEAFREGLKHFLAKIEPHNHYQKQLETVREPLRYAESVGDGERVSRSHEKYALLEGRTRELGYTVKKHLQDLFGRISRAR
- binding: binds
